No constants are given. Whether binding was seen depends on the method and setting. In cells and extracts the contact can be indirect. Some binding calls cover weakened binding; strength is not graded here.

The chains behind the UniProt entries cited, without tags or fusion partners.
UniProt Q14457: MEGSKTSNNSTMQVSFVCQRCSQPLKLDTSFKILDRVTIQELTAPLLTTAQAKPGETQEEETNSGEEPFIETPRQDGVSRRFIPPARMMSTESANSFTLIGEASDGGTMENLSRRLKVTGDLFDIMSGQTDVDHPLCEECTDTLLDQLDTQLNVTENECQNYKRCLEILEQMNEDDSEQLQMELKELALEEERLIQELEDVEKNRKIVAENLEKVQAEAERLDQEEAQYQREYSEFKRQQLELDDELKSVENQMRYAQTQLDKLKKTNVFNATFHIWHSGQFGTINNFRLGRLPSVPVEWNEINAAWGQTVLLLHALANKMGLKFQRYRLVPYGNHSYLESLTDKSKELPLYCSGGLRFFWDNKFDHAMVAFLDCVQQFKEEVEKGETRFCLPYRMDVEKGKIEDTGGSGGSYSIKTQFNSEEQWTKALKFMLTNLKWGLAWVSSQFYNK

The assay concerns the target T1, GAPR-1 (UniProt Q9H4G4).
T1 sequence (looked up): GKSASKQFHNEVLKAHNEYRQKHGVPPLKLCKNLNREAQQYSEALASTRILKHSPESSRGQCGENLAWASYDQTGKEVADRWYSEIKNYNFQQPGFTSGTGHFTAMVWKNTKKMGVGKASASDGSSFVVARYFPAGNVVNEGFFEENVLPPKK
Nature of the assay: co-immunoprecipitation.

“WT Flag-Beclin 1 (from UniProt Q14457 1-450)”: the binding entry is given as “binds”.
